These are yes or no findings as the source states them, for the method shown. In cells and extracts the contact can be indirect. Some results given as binding are weak or reduced against the parent protein; the word gives no strength.
Molecular target: Osteopontin (rat (endogenous in H9c2)) (UniProt P08721)
Assay: co-IP; OPN immunoprecipitated overnight from extracts of native WT H9c2 cells (20 mM Tris pH 7.4, 137 mM NaCl, 1% Nonidet P-40, 20% glycerol) with mouse anti-OPN antibody on Protein A/G-Sepharose beads; immunoblot for Gαs/olf; cells treated with vehicle or 10 µM salbutamol; IgG IP as negative control

Protein sequences, listed by entry. Tags and fused reporters are not part of them. Residues count along the entry.
UniProt P08721, residues 17-317: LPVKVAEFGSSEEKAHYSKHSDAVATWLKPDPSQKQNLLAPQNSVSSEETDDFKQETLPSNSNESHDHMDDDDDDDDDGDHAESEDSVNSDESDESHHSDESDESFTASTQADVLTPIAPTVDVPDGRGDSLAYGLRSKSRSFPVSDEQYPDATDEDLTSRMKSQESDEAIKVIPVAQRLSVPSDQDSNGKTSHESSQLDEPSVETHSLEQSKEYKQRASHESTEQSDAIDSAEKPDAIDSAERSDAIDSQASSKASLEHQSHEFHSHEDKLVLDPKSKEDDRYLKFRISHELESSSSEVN
UniProt P63095: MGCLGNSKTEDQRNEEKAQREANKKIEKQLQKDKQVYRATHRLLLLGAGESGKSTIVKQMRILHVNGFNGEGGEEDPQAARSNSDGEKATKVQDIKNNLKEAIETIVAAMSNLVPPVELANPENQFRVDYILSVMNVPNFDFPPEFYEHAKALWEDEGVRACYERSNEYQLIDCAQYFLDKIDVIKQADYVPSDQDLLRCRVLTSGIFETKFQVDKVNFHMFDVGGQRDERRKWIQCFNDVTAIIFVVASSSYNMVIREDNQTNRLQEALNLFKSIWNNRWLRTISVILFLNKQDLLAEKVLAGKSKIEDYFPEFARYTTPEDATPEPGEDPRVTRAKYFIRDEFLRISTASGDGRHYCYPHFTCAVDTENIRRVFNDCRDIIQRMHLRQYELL

## Gαs/olf protein subunit (from UniProt P63095 1-394)
  binding: binds weakly
